Data on 5 compounds can be found in PubChem BioAssay AID248 (DTP/NCI, 2004).

The assay concerns L1210 leukemia ip in BDF1 mice, survival T/C. Kind of assay: NCI In Vivo Anticancer Drug Screen. Data for tumor model L1210 Leukemia (intraperitoneal) in B6D2F1 (BDF1) mice. The conditions noted are these: T/C endpoint: mean survival time, higher T/C = longer survival.
Setting [1] is: dose: 20.0 mg/kg/injection, schedule: Q04DX003 (ip), vehicle: Klucel (hydroxypropylcellulose) (HPC).

Molecules are shown by their SMILES. The list does not hold the whole screen: its compounds were picked by chemical class. Other doses and runs of a compound may be missing. T/C: endpoint of the treated group in % of that of the vehicle group. Where survival is the endpoint, the PubChem record calls one and a half times the control and up active, and a quarter to a half above the control has no call in these data; cut-offs in other NCI protocols can differ. Some entries show no survivor count and are marked so; the dose need not have been tolerated. Schedule codes are those of the source, taken here to give the interval after Q, in days (D) or hours (H), and the number of doses after X. Some entries were tested several times; the results are listed from low to high. Some schedules carry Z or #; the key to these is not given.

Regarding `COc1ccc(C(=O)O)cc1N(CCCl)CCCl`, the T/C is 101 % of control [survivor count not shown] (dose: 0.2 mg/kg/injection, schedule: Q01DX009 (ip), vehicle: Klucel (hydroxypropylcellulose) (HPC)); 110 % of control [survivor count not shown] (dose: 0.5 mg/kg/injection, schedule: Q01DX009 (ip), vehicle: Klucel (hydroxypropylcellulose) (HPC)); 106 % of control [survivor count not shown] (dose: 1.0 mg/kg/injection, schedule: Q01DX009 (ip), vehicle: Klucel (hydroxypropylcellulose) (HPC)); 97 % of control [survivor count not shown] (dose: 1.2 mg/kg/injection, schedule: Q01DX009 (ip), vehicle: Klucel (hydroxypropylcellulose) (HPC)); 106 % of control [survivor count not shown] (dose: 1.9 mg/kg/injection, schedule: Q01DX009 (ip), vehicle: Klucel (hydroxypropylcellulose) (HPC)); 117 % of control [survivor count not shown] (dose: 2.0 mg/kg/injection, schedule: Q01DX009 (ip), vehicle: Klucel (hydroxypropylcellulose) (HPC)). Besides, the T/C (dose: 2.9 mg/kg/injection, schedule: Q01DX009 (ip), vehicle: Klucel (hydroxypropylcellulose) (HPC)) is 135 % of control [survivor count not shown]; the T/C (dose: 3.75 mg/kg/injection, schedule: Q04DX003 (ip), vehicle: Klucel (hydroxypropylcellulose) (HPC)) was 96 % of control [survivor count not shown]; the T/C (dose: 4.4 mg/kg/injection, schedule: Q01DX009 (ip), vehicle: Klucel (hydroxypropylcellulose) (HPC)) is 126 [survivor count not shown] and 139 % of control [survivor count not shown]; the T/C (dose: 4.4 mg/kg/injection, schedule: Q04DX003 (ip), vehicle: Klucel (hydroxypropylcellulose) (HPC)) was 117 % of control [survivor count not shown]; the T/C (dose: 6.6 mg/kg/injection, schedule: Q01DX009 (ip), vehicle: Klucel (hydroxypropylcellulose) (HPC)) was 112 [survivor count not shown] and 150 % of control [survivor count not shown]; the T/C (dose: 6.6 mg/kg/injection, schedule: Q04DX003 (ip), vehicle: Klucel (hydroxypropylcellulose) (HPC)) is 139 [survivor count not shown] and 151 % of control [survivor count not shown]. The T/C was 100 % of control [survivor count not shown] (dose: 7.5 mg/kg/injection, schedule: Q04DX003 (ip), vehicle: Klucel (hydroxypropylcellulose) (HPC)); 145 % of control [survivor count not shown] (dose: 9.9 mg/kg/injection, schedule: Q01DX009 (ip), vehicle: Klucel (hydroxypropylcellulose) (HPC)); 99 % of control [survivor count not shown] (dose: 10.0 mg/kg/injection, schedule: Q01DX009 (ip), vehicle: Klucel (hydroxypropylcellulose) (HPC)); 114 [survivor count not shown] and 115 % of control [survivor count not shown] (dose: 10.0 mg/kg/injection, schedule: Q04DX003 (ip), vehicle: Klucel (hydroxypropylcellulose) (HPC)); 146 % of control [survivor count not shown] (dose: 15.0 mg/kg/injection, schedule: Q01DX009 (ip), vehicle: Klucel (hydroxypropylcellulose) (HPC)); 108 [survivor count not shown], 134 [survivor count not shown], 159 % of control [survivor count not shown] (dose: 15.0 mg/kg/injection, schedule: Q04DX003 (ip), vehicle: Klucel (hydroxypropylcellulose) (HPC)). Also, the T/C runs as follows: under setting [1], 108 % of control [survivor count not shown]; (dose: 22.0 mg/kg/injection, schedule: Q01DX009 (ip), vehicle: Klucel (hydroxypropylcellulose) (HPC)) 146 % of control [survivor count not shown].
Consider `COC1OC(CN(CCCl)CCCl)C2OC(C)(C)OC12` (centres undefined), for which the T/C (dose: 1.1 mg/kg/injection, schedule: Q04DX003 (ip), vehicle: saline) was 119 % of control [survivor count not shown]; the T/C (dose: 1.7 mg/kg/injection, schedule: Q04DX003 (ip), vehicle: saline) was 133 % of control [survivor count not shown]; the T/C (dose: 2.7 mg/kg/injection, schedule: Q04DX003 (ip), vehicle: saline) is 138 % of control [survivor count not shown]; the T/C (dose: 4.1 mg/kg/injection, schedule: Q04DX003 (ip), vehicle: saline) is 130 % of control [survivor count not shown]; the T/C (dose: 6.25 mg/kg/injection, schedule: Q04DX003 (ip), vehicle: saline) is 139 % of control [survivor count not shown].
With `O=P(Cl)(Cl)CCBr`, the T/C reads like this: (dose: 20.0 mg/kg/injection, schedule: Q01DX001 (ip), vehicle: Klucel (hydroxypropylcellulose) (HPC)) 106 % of control [survivor count not shown]; (dose: 20.0 mg/kg/injection, schedule: Q01DX009 (ip), vehicle: Klucel (hydroxypropylcellulose) (HPC)) 100 % of control [survivor count not shown]; under setting [1], 104 % of control [survivor count not shown]; (dose: 40.0 mg/kg/injection, schedule: Q01DX001 (ip), vehicle: Klucel (hydroxypropylcellulose) (HPC)) 101 % of control [survivor count not shown]; (dose: 40.0 mg/kg/injection, schedule: Q01DX009 (ip), vehicle: Klucel (hydroxypropylcellulose) (HPC)) 101 % of control [survivor count not shown]; (dose: 40.0 mg/kg/injection, schedule: Q04DX003 (ip), vehicle: Klucel (hydroxypropylcellulose) (HPC)) 116 % of control [survivor count not shown]. For the same compound, the T/C was 103 % of control [survivor count not shown] (dose: 80.0 mg/kg/injection, schedule: Q01DX001 (ip), vehicle: Klucel (hydroxypropylcellulose) (HPC)); 94 % of control [survivor count not shown] (dose: 80.0 mg/kg/injection, schedule: Q01DX009 (ip), vehicle: Klucel (hydroxypropylcellulose) (HPC)); 106 % of control [survivor count not shown] (dose: 80.0 mg/kg/injection, schedule: Q04DX003 (ip), vehicle: Klucel (hydroxypropylcellulose) (HPC)).
Consider `NNP(=S)(NN)c1ccccc1`, for which the T/C by setting is: (dose: 100.0 mg/kg/injection, schedule: Q04DX002 (ip), vehicle: Klucel (hydroxypropylcellulose) (HPC)) 107 [survivor count not shown] and 124 % of control [survivor count not shown]; (dose: 200.0 mg/kg/injection, schedule: Q04DX002 (ip), vehicle: Klucel (hydroxypropylcellulose) (HPC)) 113 [survivor count not shown] and 118 % of control [survivor count not shown]; (dose: 400.0 mg/kg/injection, schedule: Q04DX002 (ip), vehicle: Klucel (hydroxypropylcellulose) (HPC)) 129 % of control [survivor count not shown].
Turning to `NP(=O)(OCc1ccccc1)N(CCCl)CCCl` (centres undefined), the T/C was 96 % of control [survivor count not shown] (dose: 40.0 mg/kg/injection, schedule: Q01DX011 (ip), vehicle: water); 105 % of control [survivor count not shown] (dose: 80.0 mg/kg/injection, schedule: Q01DX011 (ip), vehicle: water); 100 % of control [survivor count not shown] (dose: 160.0 mg/kg/injection, schedule: Q01DX011 (ip), vehicle: water); 116 % of control [survivor count not shown] (dose: 250.0 mg/kg/injection, schedule: Q01DX Z (ip), vehicle: water); 109 % of control [survivor count not shown] (dose: 500.0 mg/kg/injection, schedule: Q01DX Z (ip), vehicle: saline); 132 % of control [survivor count not shown] (dose: 500.0 mg/kg/injection, schedule: Q01DX Z (ip), vehicle: water). The T/C (dose: 750.0 mg/kg/injection, schedule: Q01DX Z (ip), vehicle: saline) was 133 % of control [survivor count not shown].
